Earlier results as cited in patent US6482837B1 (priority 1998, dated 2002).

Conditions: human, in vivo; cited from earlier work

## Cc1ccc(O)c([C@H](CCN(C(C)C)C(C)C)c2ccccc2)c1 [Tolterodine]
  dose after which altered nearpoint of vision was observed: 12.8 mg
  dose after which diminished stimulated salivation was observed: 3.2 mg
  dose after which increased heart rate was observed: 6.4 mg
  incidence of dry mouth: ~9%
  subjects reporting micturition difficulties: Six of 8
